The assay deals with T1, 细胞上免疫检查点 (人成熟DC与CD4+ T细胞混合培养物上的PD-L2) (human) (UniProt Q9BQ51).
T1 sequence (looked up): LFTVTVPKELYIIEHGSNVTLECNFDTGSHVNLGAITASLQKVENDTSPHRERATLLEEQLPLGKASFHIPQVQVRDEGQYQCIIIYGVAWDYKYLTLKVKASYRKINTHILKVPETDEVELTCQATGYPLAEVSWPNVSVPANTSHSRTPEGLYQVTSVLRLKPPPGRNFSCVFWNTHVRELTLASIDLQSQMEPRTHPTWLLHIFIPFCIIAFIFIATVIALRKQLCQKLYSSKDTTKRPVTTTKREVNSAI
Briefly: flow cytometry on mixed human mature DC and CD4+ T cells. (In flow cytometry, cells or beads pass a laser one at a time.)

No constants are given. Whether binding was seen depends on the method and setting. Some entries that bind do so weakly or less than the wild type.

B1: 人源化25G4-1.1抗体 (antibody, human IgG1, kappa, V domains shown)
VH: QVQLVQSGAEVKKPGASVKVSCKASGYTFTTNWMNWVRQAPGQGLEWMGRIDPSDSETHYAQKFQGRVTMTVDKSTNTVYMELSSLRSEDTAVYYCVREGIYGPWFAYWGQGTLVTVSS
VL: DIQMTQSPSSLSASVGDRVTITCRASESVDNYGISLMHWYQQKPGKAPKLLIYRASDLESGVPSRFSGSGSRTDFTLTISSLQPEDFATYYCQQSDKDPPTFGQGTKVEIKR
With B1, the binding result is given as “binds”.

(Values after patent CN114075288A.)
